According to publication doi:10.1101/746180:
No constants are given. Whether binding was seen depends on the method and setting. For part of these data: Binding seen in cells or lysates may run through a third protein. Some results given as binding are weak or reduced against the parent protein; the word gives no strength.

Sequences of proteins named here, by UniProt entry; tags and fusion partners are left off. A change or cut given only in a name is not applied to a line headed by its entry. A line that says so, or that is headed by a name, gives the form on record, which may keep a tag or linker. Residues count along the entry.
UniProt Q9H2F5: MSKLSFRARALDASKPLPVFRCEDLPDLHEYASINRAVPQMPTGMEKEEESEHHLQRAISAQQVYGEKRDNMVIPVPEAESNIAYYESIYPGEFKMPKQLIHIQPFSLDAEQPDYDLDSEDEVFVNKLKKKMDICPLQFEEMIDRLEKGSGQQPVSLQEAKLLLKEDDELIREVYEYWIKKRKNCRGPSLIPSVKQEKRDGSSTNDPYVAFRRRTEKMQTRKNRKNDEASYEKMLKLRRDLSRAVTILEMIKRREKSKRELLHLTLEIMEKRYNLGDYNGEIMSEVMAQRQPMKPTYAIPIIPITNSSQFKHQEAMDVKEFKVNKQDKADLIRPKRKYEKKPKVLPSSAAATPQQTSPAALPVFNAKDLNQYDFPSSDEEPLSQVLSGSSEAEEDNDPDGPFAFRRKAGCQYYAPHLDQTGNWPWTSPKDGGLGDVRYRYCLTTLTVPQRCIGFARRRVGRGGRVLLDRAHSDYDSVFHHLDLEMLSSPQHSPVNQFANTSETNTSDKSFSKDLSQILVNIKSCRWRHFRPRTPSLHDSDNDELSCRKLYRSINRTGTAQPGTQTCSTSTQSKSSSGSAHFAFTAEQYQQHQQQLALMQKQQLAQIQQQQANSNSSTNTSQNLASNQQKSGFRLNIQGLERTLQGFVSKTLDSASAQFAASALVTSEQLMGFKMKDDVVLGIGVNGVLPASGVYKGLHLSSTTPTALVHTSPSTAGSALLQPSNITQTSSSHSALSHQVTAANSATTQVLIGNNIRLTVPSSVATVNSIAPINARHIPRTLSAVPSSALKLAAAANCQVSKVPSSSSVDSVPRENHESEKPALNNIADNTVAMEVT
3xFlag-tagged EPC1(1-464): residues 1-464 of Q9H2F5
GST-EPC1(644-799): residues 644-799 of Q9H2F5
GST-EPC1(644-672): residues 644-672 of Q9H2F5
GST-EPC1(673-776): residues 673-776 of Q9H2F5
GST-EPC1(729-799): residues 729-799 of Q9H2F5
UniProt Q05BQ5: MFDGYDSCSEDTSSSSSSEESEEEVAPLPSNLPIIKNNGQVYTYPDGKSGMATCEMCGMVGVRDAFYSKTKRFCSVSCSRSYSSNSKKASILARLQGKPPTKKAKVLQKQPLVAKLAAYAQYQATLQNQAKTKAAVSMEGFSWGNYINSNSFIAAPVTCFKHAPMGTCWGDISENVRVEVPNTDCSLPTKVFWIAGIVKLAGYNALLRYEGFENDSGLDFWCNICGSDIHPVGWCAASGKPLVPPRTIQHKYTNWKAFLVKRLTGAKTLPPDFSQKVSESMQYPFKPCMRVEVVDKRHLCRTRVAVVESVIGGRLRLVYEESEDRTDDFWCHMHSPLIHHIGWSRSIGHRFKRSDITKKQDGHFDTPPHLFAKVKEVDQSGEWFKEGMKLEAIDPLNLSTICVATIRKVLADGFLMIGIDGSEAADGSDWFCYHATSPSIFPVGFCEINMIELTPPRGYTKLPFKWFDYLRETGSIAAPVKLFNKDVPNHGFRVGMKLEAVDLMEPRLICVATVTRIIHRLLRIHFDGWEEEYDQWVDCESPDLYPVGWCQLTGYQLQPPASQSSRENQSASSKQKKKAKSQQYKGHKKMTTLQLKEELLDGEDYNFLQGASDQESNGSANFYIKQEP
UniProt Q92993: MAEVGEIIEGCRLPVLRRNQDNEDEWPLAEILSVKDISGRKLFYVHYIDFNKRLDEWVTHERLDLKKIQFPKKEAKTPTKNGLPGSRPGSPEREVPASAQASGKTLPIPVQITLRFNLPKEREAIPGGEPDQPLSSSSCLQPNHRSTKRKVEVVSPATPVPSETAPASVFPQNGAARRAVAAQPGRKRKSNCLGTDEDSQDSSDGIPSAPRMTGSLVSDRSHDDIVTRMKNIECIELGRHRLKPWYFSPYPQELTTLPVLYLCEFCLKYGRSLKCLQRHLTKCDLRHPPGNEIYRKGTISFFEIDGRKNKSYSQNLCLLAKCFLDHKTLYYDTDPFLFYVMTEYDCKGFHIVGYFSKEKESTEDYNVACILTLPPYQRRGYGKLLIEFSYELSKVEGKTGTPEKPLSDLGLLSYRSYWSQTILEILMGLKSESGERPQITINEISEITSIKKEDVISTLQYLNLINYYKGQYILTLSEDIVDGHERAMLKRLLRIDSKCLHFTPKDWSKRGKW

Assays:
GST-EPC1(644-672) = GST-EPC1(644-672) (UniProt Q9H2F5); assay: pull-down
GST-EPC1(644-799) = GST-EPC1(644-799) (UniProt Q9H2F5); assay: pull-down
GST-EPC1(673-776) = GST-EPC1(673-776) (UniProt Q9H2F5); assay: pull-down
GST-EPC1(729-799) = GST-EPC1(729-799) (UniProt Q9H2F5); assay: pull-down
[1] = molecular target: 3xFlag-tagged EPC1 L651D/A660D/L663D (UniProt Q9H2F5); assay: co-IP
3xFlag-tagged EPC1 WT = 3xFlag-tagged EPC1 WT (UniProt Q9H2F5); assay: co-IP
[2] = molecular target: 3xFlag-tagged EPC1(1-464) (UniProt Q9H2F5); assay: co-IP

Row | Substance | binding (GST-EPC1(644-672)) | binding (GST-EPC1(644-799)) | binding (GST-EPC1(673-776)) | binding (GST-EPC1(729-799)) | binding [1] | binding (3xFlag-tagged EPC1 WT) | binding [2]
1 | His-MBTD1 (from UniProt Q05BQ5 1-628) | binds | binds | no binding | no binding |  |  | 
2 | MBTD1 (endogenous, K562) (from UniProt Q05BQ5 1-628) |  |  |  |  | no binding | binds | no binding
3 | Tip60 (endogenous, K562) (from UniProt Q92993 1-513) (enzyme) |  |  |  |  | binds | binds | 
